Assay results: article doi:10.1101/2020.06.11.146027
Results are given in words; binding and its absence hold for the method and conditions named. For some assays here: Binding seen in cells or lysates may run through a third protein. Some binding calls cover weakened binding; strength is not graded here.

Amino acid sequences for entries named in this document (tags omitted). Residues count along the entry.
UniProt P07355: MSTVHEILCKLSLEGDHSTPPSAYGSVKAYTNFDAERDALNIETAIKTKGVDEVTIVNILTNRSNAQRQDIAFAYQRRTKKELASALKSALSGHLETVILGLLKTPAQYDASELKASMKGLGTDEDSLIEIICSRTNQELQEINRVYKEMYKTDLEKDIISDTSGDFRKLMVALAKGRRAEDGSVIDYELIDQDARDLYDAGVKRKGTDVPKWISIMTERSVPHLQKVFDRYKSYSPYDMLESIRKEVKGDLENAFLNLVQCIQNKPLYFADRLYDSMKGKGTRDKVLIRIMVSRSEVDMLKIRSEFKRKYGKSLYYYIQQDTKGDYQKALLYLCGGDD
UniProt P19838, residues 1-433: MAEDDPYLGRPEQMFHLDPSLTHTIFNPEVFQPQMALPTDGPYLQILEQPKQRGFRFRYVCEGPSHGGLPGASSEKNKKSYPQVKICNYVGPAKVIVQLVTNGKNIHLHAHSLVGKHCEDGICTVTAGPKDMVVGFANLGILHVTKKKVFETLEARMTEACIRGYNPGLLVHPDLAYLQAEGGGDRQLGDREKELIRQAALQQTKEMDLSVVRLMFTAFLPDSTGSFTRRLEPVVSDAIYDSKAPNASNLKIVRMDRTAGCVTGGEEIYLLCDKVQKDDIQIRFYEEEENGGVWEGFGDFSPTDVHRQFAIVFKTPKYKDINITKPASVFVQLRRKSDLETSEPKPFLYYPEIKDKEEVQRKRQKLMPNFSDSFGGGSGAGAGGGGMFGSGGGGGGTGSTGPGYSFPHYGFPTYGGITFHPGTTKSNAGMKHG

What was measured:
[1] = target: annexin A2 (ANXA2), endogenous in A549 cells (human (endogenous in A549)) (UniProt P07355); test: co-IP
[2] = target: human recombinant annexin A2 (ANXA2) (human) (UniProt P07355); test: co-IP

Row | binding [1] | binding [2] | Substance
1 | binds | – | NF-κB p50 subunit, endogenous in A549 cells (from UniProt P19838 1-433)
2 | – | binds | recombinant NF-κB p50 subunit (from UniProt P19838 1-433)
